Data as given in PubChem BioAssay AID1159593 (NIAID, 2016).
Assay: 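TLR pathway parts governing NF-kappaB p65 translocation after LPS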. System: RAW264.7 macrophages of mouse, with reporters for p65 (GFP) and the Tnf promoter (mCherry). Reagent: single siRNA against mouse genes. Time to read-out: 48 to 72 hours after siRNA transfection, then LPS for 40 min. Challenge: LPS (Salmonella minnesota R595) for 40 min before fixation; dose not given. Detection: 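High-content imaging of GFP-p65 moving into nuclei after 40 min LPS, plate median/MAD normalised, replicate mean of robust z-score relative to negative controls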. Scale: p65 translocation z-score: higher = more nuclear NF-kappaB p65 after LPS. Rule for the call: 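z scored in tiers by size in both directions (1, 1.5, 2, 2.5); stated active cut-off missing, but called actives lie near absolute z 1.5 or above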. Meaning of the calls: active = changed p65 translocation (either direction); inactive = no clear change.
This is an unselected part of 756 deposited reagents. In the full data, 137 (18%) are marked active. 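Active means p65 translocation went either up or down; genes were judged on the median of six siRNAs, not single siRNAs.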 The numbers tell different reagents against one gene apart. The record does not give: the amount of reagent.

The first 2 entries, ahead of the listing:
gene symbol,reagent,p65 translocation z-score,call
Pik3r1 (phosphoinositide-3-kinase regulatory subunit 1),1,-1.68,active
Pik3r1 (phosphoinositide-3-kinase regulatory subunit 1),2,-1.25,inactive

The list itself, from the first entry:
gene symbol,reagent,p65 translocation z-score,call
Pik3r1 (phosphoinositide-3-kinase regulatory subunit 1),1,-1.68,active
Pik3r1 (phosphoinositide-3-kinase regulatory subunit 1),2,-1.25,inactive
Pik3r1 (phosphoinositide-3-kinase regulatory subunit 1),3,0.626,inactive
Pik3r1 (phosphoinositide-3-kinase regulatory subunit 1),4,-0.0679,inactive
Pik3r1 (phosphoinositide-3-kinase regulatory subunit 1),5,-1.41,inactive
Pik3r1 (phosphoinositide-3-kinase regulatory subunit 1),6,-1.42,inactive
Elk1 (ETS transcription factor ELK1),1,-0.614,inactive
Elk1 (ETS transcription factor ELK1),2,-0.54,inactive
Elk1 (ETS transcription factor ELK1),3,-1.25,inactive
Elk1 (ETS transcription factor ELK1),4,-1.23,inactive
Elk1 (ETS transcription factor ELK1),5,0.177,inactive
Elk1 (ETS transcription factor ELK1),6,-2.03,active
Il1b (interleukin 1 beta),1,0.425,inactive
Il1b (interleukin 1 beta),2,-0.342,inactive
Il1b (interleukin 1 beta),3,0.161,inactive
Il1b (interleukin 1 beta),4,1.82,active
Il1b (interleukin 1 beta),5,-0.385,inactive
Il1b (interleukin 1 beta),6,-0.573,inactive
Ube2v1 (ubiquitin-conjugating enzyme E2 variant 1),1,1.57,active
Ube2v1 (ubiquitin-conjugating enzyme E2 variant 1),2,-1.21,inactive
Ube2v1 (ubiquitin-conjugating enzyme E2 variant 1),3,0.16,inactive
Ube2v1 (ubiquitin-conjugating enzyme E2 variant 1),4,-0.813,inactive
Ube2v1 (ubiquitin-conjugating enzyme E2 variant 1),5,0.846,inactive
Ube2v1 (ubiquitin-conjugating enzyme E2 variant 1),6,-1.2,inactive
Mapk10 (mitogen-activated protein kinase 10),1,1.25,inactive
Mapk10 (mitogen-activated protein kinase 10),2,0.189,inactive
Mapk10 (mitogen-activated protein kinase 10),3,-0.911,inactive
Mapk10 (mitogen-activated protein kinase 10),4,-0.645,inactive
Mapk10 (mitogen-activated protein kinase 10),5,-0.663,inactive
Mapk10 (mitogen-activated protein kinase 10),6,-1.16,inactive
Ripk3 (receptor-interacting serine-threonine kinase 3),1,-0.246,inactive
Ripk3 (receptor-interacting serine-threonine kinase 3),2,0.452,inactive
Ripk3 (receptor-interacting serine-threonine kinase 3),3,-0.74,inactive
Ripk3 (receptor-interacting serine-threonine kinase 3),4,-0.418,inactive
Ripk3 (receptor-interacting serine-threonine kinase 3),5,-0.166,inactive
Ripk3 (receptor-interacting serine-threonine kinase 3),6,1.58,active
Pik3r5 (phosphoinositide-3-kinase regulatory subunit 5),1,0.464,inactive
Pik3r5 (phosphoinositide-3-kinase regulatory subunit 5),2,0.664,inactive
Pik3r5 (phosphoinositide-3-kinase regulatory subunit 5),3,-0.445,inactive
Pik3r5 (phosphoinositide-3-kinase regulatory subunit 5),4,0.403,inactive
Pik3r5 (phosphoinositide-3-kinase regulatory subunit 5),5,-1.77,active
Pik3r5 (phosphoinositide-3-kinase regulatory subunit 5),6,-1.29,inactive
Map3k14 (mitogen-activated protein kinase kinase kinase 14),1,-0.553,inactive
Map3k14 (mitogen-activated protein kinase kinase kinase 14),2,0.887,inactive
Map3k14 (mitogen-activated protein kinase kinase kinase 14),3,-1.27,inactive
Map3k14 (mitogen-activated protein kinase kinase kinase 14),4,0.286,inactive
Map3k14 (mitogen-activated protein kinase kinase kinase 14),5,5.75,active
Map3k14 (mitogen-activated protein kinase kinase kinase 14),6,-1.48,inactive
Tlr3 (toll-like receptor 3),1,1.03,inactive
Tlr3 (toll-like receptor 3),2,-0.6,inactive
Tlr3 (toll-like receptor 3),3,-0.932,inactive
Tlr3 (toll-like receptor 3),4,0.347,inactive
Tlr3 (toll-like receptor 3),5,-0.615,inactive
Tlr3 (toll-like receptor 3),6,-0.118,inactive
Traf6 (TNF receptor-associated factor 6),1,-2.26,active
Traf6 (TNF receptor-associated factor 6),2,-1.22,inactive
Traf6 (TNF receptor-associated factor 6),3,-1.93,active
Traf6 (TNF receptor-associated factor 6),4,-0.967,inactive
Traf6 (TNF receptor-associated factor 6),5,-1.6,active
Traf6 (TNF receptor-associated factor 6),6,-2.41,active
Itgam (integrin alpha M),1,0.0369,inactive
Itgam (integrin alpha M),2,-0.29,inactive
Itgam (integrin alpha M),3,-0.359,inactive
Itgam (integrin alpha M),4,0.643,inactive
Itgam (integrin alpha M),5,-1.11,inactive
Itgam (integrin alpha M),6,-0.915,inactive
Crebbp (CREB binding protein),1,-0.398,inactive
Crebbp (CREB binding protein),2,-2.64,active
Crebbp (CREB binding protein),3,-0.76,inactive
Crebbp (CREB binding protein),4,-0.812,inactive
Crebbp (CREB binding protein),5,0.174,inactive
Crebbp (CREB binding protein),6,0.338,inactive
Irf7 (interferon regulatory factor 7),1,-0.569,inactive
Irf7 (interferon regulatory factor 7),2,0.15,inactive
Irf7 (interferon regulatory factor 7),3,0.122,inactive
Irf7 (interferon regulatory factor 7),4,-0.646,inactive
Irf7 (interferon regulatory factor 7),5,-0.777,inactive
Irf7 (interferon regulatory factor 7),6,-0.486,inactive
Irak2 (interleukin-1 receptor-associated kinase 2),1,-2.03,active
Irak2 (interleukin-1 receptor-associated kinase 2),2,-0.959,inactive
Irak2 (interleukin-1 receptor-associated kinase 2),3,-2.22,active
Irak2 (interleukin-1 receptor-associated kinase 2),4,-1.09,inactive
Irak2 (interleukin-1 receptor-associated kinase 2),5,-1.13,inactive
Irak2 (interleukin-1 receptor-associated kinase 2),6,-0.45,inactive
Il6 (interleukin 6),1,-0.222,inactive
Il6 (interleukin 6),2,0.155,inactive
Il6 (interleukin 6),3,0.174,inactive
Il6 (interleukin 6),4,-1.02,inactive
Il6 (interleukin 6),5,0.465,inactive
Il6 (interleukin 6),6,-0.125,inactive
Nfkb2,1,0.451,inactive
Nfkb2,2,-0.373,inactive
Nfkb2,3,0.748,inactive
Nfkb2,4,0.918,inactive
Nfkb2,5,-0.264,inactive
Nfkb2,6,2.17,active
Sp1 (trans-acting transcription factor 1),1,-0.539,inactive
Sp1 (trans-acting transcription factor 1),2,-1.84,active
Sp1 (trans-acting transcription factor 1),3,0.386,inactive
Sp1 (trans-acting transcription factor 1),4,-0.304,inactive
Sp1 (trans-acting transcription factor 1),5,-0.0773,inactive
Sp1 (trans-acting transcription factor 1),6,0.357,inactive
Tank (TRAF family member-associated Nf-kappa B activator),1,-0.294,inactive
Tank (TRAF family member-associated Nf-kappa B activator),2,3.97,active
Tank (TRAF family member-associated Nf-kappa B activator),3,0.504,inactive
Tank (TRAF family member-associated Nf-kappa B activator),4,-0.441,inactive
Tank (TRAF family member-associated Nf-kappa B activator),5,1.56,active
Tank (TRAF family member-associated Nf-kappa B activator),6,-0.338,inactive
Map3k1 (mitogen-activated protein kinase kinase kinase 1),1,0.656,inactive
Map3k1 (mitogen-activated protein kinase kinase kinase 1),2,-1.29,inactive
Map3k1 (mitogen-activated protein kinase kinase kinase 1),3,0.745,inactive
Map3k1 (mitogen-activated protein kinase kinase kinase 1),4,-0.43,inactive
Map3k1 (mitogen-activated protein kinase kinase kinase 1),5,2.83,active
Map3k1 (mitogen-activated protein kinase kinase kinase 1),6,-0.45,inactive
Nfkbib,1,-0.78,inactive
Nfkbib,2,0.354,inactive
Nfkbib,3,0.523,inactive
Nfkbib,4,0.555,inactive
Nfkbib,5,-0.739,inactive
Nfkbib,6,0.577,inactive
Tlr5 (toll-like receptor 5),1,-0.596,inactive
Tlr5 (toll-like receptor 5),2,0.451,inactive
Tlr5 (toll-like receptor 5),3,0.429,inactive
Tlr5 (toll-like receptor 5),4,-0.965,inactive
Tlr5 (toll-like receptor 5),5,1.17,inactive
Tlr5 (toll-like receptor 5),6,0.358,inactive
Cxcl11 (chemokine (C-X-C motif) ligand 11),1,-0.439,inactive
Cxcl11 (chemokine (C-X-C motif) ligand 11),2,0.688,inactive
Cxcl11 (chemokine (C-X-C motif) ligand 11),3,-0.00587,inactive
Cxcl11 (chemokine (C-X-C motif) ligand 11),4,-1.58,active
Cxcl11 (chemokine (C-X-C motif) ligand 11),5,-1.08,inactive
Cxcl11 (chemokine (C-X-C motif) ligand 11),6,-0.213,inactive
"Relb (Relb proto-oncogene, NFKB subunit)",1,-0.00994,inactive
"Relb (Relb proto-oncogene, NFKB subunit)",2,-0.437,inactive
"Relb (Relb proto-oncogene, NFKB subunit)",3,-2.41,active
"Relb (Relb proto-oncogene, NFKB subunit)",4,0.272,inactive
"Relb (Relb proto-oncogene, NFKB subunit)",5,-1.16,inactive
"Relb (Relb proto-oncogene, NFKB subunit)",6,-1.58,active
Mapk13 (mitogen-activated protein kinase 13),1,-0.903,inactive
Mapk13 (mitogen-activated protein kinase 13),2,-2.09,active
Mapk13 (mitogen-activated protein kinase 13),3,-0.231,inactive
Mapk13 (mitogen-activated protein kinase 13),4,0.201,inactive
Mapk13 (mitogen-activated protein kinase 13),5,0.588,inactive
Mapk13 (mitogen-activated protein kinase 13),6,-0.431,inactive
